Measurements published in patent US20180207240A1.
These are yes or no findings as the source states them, for the method shown. Some binding calls cover weakened binding; strength is not graded here.

Chains of the proteins cited; added tags and fusions are not shown. Lines headed by an entry give the natural chain unless they say otherwise; changes in a name come on top.
UniProt P02463: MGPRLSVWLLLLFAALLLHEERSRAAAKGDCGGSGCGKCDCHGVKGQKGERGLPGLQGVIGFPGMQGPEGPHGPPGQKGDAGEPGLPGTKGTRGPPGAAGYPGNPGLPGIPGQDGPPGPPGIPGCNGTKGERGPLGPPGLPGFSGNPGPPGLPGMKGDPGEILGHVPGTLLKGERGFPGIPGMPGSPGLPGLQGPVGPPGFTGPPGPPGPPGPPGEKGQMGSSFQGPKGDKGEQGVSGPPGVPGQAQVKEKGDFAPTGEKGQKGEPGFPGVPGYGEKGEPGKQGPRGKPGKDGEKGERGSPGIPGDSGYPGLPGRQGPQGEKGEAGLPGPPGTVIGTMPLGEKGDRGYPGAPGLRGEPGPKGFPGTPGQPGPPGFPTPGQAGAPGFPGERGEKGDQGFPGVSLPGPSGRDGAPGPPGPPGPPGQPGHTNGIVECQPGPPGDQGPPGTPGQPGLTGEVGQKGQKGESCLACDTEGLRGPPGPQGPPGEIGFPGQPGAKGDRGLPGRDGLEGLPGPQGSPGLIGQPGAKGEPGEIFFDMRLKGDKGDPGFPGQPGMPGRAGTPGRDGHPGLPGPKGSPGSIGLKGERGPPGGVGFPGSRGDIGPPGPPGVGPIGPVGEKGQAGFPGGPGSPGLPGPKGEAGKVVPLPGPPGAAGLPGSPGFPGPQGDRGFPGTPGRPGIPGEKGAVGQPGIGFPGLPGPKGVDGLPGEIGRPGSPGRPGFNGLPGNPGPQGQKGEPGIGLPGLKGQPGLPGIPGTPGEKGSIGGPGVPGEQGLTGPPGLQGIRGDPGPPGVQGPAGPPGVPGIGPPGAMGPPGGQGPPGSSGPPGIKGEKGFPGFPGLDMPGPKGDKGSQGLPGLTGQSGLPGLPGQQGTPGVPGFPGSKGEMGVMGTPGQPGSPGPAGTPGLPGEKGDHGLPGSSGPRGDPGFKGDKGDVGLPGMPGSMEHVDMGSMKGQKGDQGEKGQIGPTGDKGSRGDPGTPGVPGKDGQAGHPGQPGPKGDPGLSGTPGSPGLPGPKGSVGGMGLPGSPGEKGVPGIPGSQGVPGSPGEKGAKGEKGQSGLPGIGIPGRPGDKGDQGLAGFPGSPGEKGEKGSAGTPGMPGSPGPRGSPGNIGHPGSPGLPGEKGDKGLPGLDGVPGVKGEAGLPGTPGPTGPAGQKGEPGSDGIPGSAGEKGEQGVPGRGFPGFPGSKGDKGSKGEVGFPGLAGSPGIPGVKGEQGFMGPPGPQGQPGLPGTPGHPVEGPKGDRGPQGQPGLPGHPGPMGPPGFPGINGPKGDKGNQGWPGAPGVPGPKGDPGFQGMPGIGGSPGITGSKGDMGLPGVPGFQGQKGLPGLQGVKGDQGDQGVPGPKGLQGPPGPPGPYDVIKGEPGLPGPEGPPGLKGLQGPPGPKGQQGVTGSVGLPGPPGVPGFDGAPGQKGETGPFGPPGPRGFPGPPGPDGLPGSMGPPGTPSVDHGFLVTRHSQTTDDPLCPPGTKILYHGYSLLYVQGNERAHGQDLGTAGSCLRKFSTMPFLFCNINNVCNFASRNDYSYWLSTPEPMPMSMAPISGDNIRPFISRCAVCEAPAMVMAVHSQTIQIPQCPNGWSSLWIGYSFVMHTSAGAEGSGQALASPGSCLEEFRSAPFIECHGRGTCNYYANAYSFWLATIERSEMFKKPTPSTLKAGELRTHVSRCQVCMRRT
UniProt P08122: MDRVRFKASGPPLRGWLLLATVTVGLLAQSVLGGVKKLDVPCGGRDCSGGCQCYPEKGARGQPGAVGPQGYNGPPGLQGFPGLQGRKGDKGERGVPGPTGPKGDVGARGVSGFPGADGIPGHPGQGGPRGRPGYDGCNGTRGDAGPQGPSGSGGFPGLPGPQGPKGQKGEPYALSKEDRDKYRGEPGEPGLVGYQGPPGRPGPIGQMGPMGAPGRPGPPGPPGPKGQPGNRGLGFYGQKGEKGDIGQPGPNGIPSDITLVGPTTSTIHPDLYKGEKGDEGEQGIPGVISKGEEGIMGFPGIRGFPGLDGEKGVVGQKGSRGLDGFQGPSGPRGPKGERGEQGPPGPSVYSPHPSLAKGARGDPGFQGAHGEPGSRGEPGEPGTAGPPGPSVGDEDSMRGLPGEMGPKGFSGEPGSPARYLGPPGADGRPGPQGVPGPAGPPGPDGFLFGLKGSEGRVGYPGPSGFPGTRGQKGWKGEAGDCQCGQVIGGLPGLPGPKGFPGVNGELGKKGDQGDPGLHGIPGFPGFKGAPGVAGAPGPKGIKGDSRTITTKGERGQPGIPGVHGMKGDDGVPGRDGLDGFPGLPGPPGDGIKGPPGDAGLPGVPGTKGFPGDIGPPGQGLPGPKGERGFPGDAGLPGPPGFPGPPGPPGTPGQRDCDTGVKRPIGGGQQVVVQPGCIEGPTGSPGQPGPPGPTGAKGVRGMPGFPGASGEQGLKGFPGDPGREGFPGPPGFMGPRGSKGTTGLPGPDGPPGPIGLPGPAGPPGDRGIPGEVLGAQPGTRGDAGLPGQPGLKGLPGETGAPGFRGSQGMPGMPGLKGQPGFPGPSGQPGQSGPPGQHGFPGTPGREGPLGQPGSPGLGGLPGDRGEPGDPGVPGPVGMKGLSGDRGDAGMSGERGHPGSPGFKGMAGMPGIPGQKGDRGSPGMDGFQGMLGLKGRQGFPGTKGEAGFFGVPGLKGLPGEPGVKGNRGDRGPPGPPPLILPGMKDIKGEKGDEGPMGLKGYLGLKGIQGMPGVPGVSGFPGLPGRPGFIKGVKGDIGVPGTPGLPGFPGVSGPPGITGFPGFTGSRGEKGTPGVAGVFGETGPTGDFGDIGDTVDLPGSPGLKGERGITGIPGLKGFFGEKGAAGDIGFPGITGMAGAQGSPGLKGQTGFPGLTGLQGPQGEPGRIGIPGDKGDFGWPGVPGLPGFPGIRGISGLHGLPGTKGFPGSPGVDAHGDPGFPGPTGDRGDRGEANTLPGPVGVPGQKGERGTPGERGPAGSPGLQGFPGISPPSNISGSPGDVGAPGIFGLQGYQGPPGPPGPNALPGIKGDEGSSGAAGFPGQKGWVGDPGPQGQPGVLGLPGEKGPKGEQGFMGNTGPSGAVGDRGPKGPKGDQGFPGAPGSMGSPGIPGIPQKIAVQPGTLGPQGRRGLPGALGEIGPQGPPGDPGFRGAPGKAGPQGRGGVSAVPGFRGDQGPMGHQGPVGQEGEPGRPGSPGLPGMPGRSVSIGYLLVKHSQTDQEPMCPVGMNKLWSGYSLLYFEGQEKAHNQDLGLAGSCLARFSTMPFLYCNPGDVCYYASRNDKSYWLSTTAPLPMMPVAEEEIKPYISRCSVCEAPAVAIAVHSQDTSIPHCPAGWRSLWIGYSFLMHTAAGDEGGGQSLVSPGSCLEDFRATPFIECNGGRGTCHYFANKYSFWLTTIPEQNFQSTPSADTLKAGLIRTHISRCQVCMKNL

Molecular target: Purified Col4 (α1(2)α2) proteins from mouse (Cat. No. sc-29010, Santa Cruz) (mouse) (UniProt P02463+P08122)
Assay: denaturing and native PAGE of the preparation, self-association

Purified Col4 (α1(2)α2) proteins from mouse (Cat. No. sc-29010, Santa Cruz) (from UniProt P02463 28-1669; P08122 26-1707)
binding: binds
